No constants are given. Whether binding was seen depends on the method and setting. In cells and extracts the contact can be indirect. Some results given as binding are weak or reduced against the parent protein; the word gives no strength.
Target: Toll-like receptor 4 (mouse (endogenous in mouse brain tissue)) (UniProt Q9QUK6)
Assay: co-IP; rat anti-TLR4 IP from RIPA lysate of mouse brain tissue at the bleeding site, third day after inducing ICH with collagenase VII; protein A/G Plus-agarose overnight at 4 °C, washed thrice with PBS; Western blot for TLR4, CD14 and collagenase

Chains of the proteins cited; added tags and fusions are not shown. Residues count along the entry.
UniProt Q9QUK6, residues 26-835: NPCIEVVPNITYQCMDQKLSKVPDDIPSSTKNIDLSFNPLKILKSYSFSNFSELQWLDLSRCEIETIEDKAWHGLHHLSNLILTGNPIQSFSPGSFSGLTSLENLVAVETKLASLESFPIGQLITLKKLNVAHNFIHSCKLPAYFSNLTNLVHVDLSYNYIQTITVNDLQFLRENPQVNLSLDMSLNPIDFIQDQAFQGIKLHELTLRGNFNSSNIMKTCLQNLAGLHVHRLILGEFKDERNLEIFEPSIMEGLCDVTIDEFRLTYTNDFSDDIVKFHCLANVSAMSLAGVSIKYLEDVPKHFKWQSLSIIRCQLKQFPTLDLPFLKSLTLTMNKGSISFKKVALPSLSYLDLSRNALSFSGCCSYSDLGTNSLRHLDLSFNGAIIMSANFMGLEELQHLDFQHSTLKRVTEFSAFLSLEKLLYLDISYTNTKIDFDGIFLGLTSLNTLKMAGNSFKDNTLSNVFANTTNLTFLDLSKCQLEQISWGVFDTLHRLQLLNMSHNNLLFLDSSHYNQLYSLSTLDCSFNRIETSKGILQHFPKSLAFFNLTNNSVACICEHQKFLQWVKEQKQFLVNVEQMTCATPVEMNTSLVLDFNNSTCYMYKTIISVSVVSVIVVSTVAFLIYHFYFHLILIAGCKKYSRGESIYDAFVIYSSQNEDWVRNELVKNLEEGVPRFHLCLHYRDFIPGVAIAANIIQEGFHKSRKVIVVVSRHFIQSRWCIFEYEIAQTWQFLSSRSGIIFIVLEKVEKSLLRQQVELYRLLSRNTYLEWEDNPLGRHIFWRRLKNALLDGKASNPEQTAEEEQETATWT

binding: binds
B1: CD14 (protein, UniProt P10810 16-336)
chain: SPAPPEPCELDEESCSCNFSDPKPDWSSAFNCLGAADVELYGGGRSLEYLLKRVDTEADLGQFTDIIKSLSLKRLTVRAARIPSRILFGALRVLGISGLQELTLENLEVTGTAPPPLLEATGPDLNILNLRNVSWATRDAWLAELQQWLKPGLKVLSIAQAHSLNFSCEQVRVFPALSTLDLSDNPELGERGLISALCPLKFPTLQVLALRNAGMETPSGVCSALAAARVQLQGLDLSHNSLRDAAGAPSCDWPSQLNSLNLSFTGLKQVPKGLPAKLSVLDLSYNRLDRNPSPDELPQVGNLSLKGNPFLDSESHSEKFN

Reference: publication PMC6880548
